Test results as given in the supplement of paper PMC8728848.
This is one part of the list.

Columns and labels:
Assay in all cases: glycan array binding signal (z-score within array); higher = stronger binding
Conditions in all cases: glycan notation: IUPAC condensed, linker removed
[1] = target: Gal(b1-3)GlcNAc(b1-6)[Gal(b1-3)]GalNAc
Summary of the method: (§1)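 The binding signal is a Z-score computed within each array. Data were drawn from 3228 arrays in the Consortium for Functional Glycomics database, restricted to those with a known protein sequence. Scores were averaged over arrays of the same protein sequence at different concentrations or buffers, and over linkers, and negative values can be taken as non-binding.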

Gal(b1-3)GlcNAc6S = target: Gal(b1-3)GlcNAc6S
Summary of the method: as §1

[2] = target: Gal(b1-3)[Fuc(a1-4)]GlcNAc
Summary of the method: as §1

[3] = target: Gal(b1-3)[Fuc(a1-4)]GlcNAc(b1-2)Man
Summary of the method: as §1

[4] = target: Gal(b1-3)[Fuc(a1-4)]GlcNAc(b1-2)Man(a1-3)[Gal(b1-3)[Fuc(a1-4)]GlcNAc(b1-2)Man(a1-6)]Man(b1-4)GlcNAc(b1-4)[Fuc(a1-6)]GlcNAc
Summary of the method: as §1

[5] = target: Gal(b1-3)[Fuc(a1-4)]GlcNAc(b1-3)Gal(b1-3)[Fuc(a1-4)]GlcNAc
Summary of the method: as §1

[6] = target: Gal(b1-3)[Fuc(a1-4)]GlcNAc(b1-3)Gal(b1-4)[Fuc(a1-3)]GlcNAc
Summary of the method: as §1

[7] = target: Gal(b1-3)[Fuc(a1-4)]GlcNAc(b1-6)GalNAc
Summary of the method: as §1

[8] = target: Gal(b1-3)[GlcNAc(b1-6)]GalNAc
Summary of the method: as §1

[9] = target: Gal(b1-3)[Neu5Ac(a2-6)]GalNAc
Summary of the method: as §1

[10] = target: Gal(b1-3)[Neu5Ac(a2-6)]GlcNAc(b1-4)Gal(b1-4)Glc
Summary of the method: as §1

[11] = target: Gal(b1-3)[Neu5Ac(b2-6)]GalNAc
Summary of the method: as §1

Gal(b1-4)Gal = target: Gal(b1-4)Gal
Summary of the method: as §1

[12] = target: Gal(b1-4)GalNAc(a1-3)[Fuc(a1-2)]Gal(b1-4)GlcNAc
Summary of the method: as §1

[13] = target: Gal(b1-4)GalNAc(b1-3)[Fuc(a1-2)]Gal(b1-4)GlcNAc
Summary of the method: as §1

Gal(b1-4)Glc = target: Gal(b1-4)Glc
Summary of the method: as §1

Gal(b1-4)Glc6S = target: Gal(b1-4)Glc6S
Summary of the method: as §1

Gal(b1-4)GlcNAc = target: Gal(b1-4)GlcNAc
Summary of the method: as §1

[14] = target: Gal(b1-4)GlcNAc(a1-6)Gal(b1-4)GlcNAc
Summary of the method: as §1

Gal(b1-4)GlcNAc(b1-2)Man = target: Gal(b1-4)GlcNAc(b1-2)Man
Summary of the method: as §1

[15] = target: Gal(b1-4)GlcNAc(b1-2)Man(a1-3)Man(b1-4)GlcNAc(b1-4)GlcNAc
Summary of the method: as §1

[16] = target: Gal(b1-4)GlcNAc(b1-2)Man(a1-3)[Gal(b1-4)GlcNAc(b1-2)Man(a1-6)]Man(b1-4)GlcNAc(b1-4)GlcNAc
Summary of the method: as §1

[17] = target: Gal(b1-4)GlcNAc(b1-2)Man(a1-3)[Gal(b1-4)GlcNAc(b1-2)Man(a1-6)]Man(b1-4)GlcNAc(b1-4)[Fuc(a1-6)]GlcNAc
Summary of the method: as §1

[18] = target: Gal(b1-4)GlcNAc(b1-2)Man(a1-3)[Gal(b1-4)GlcNAc(b1-2)Man(a1-6)][Gal(b1-4)GlcNAc(b1-4)]Man(b1-4)GlcNAc(b1-4)[Fuc(a1-6)]GlcNAc
Summary of the method: as §1

[19] = target: Gal(b1-4)GlcNAc(b1-2)Man(a1-3)[Gal(b1-4)GlcNAc(b1-2)Man(a1-6)][GlcNAc(b1-4)]Man(b1-4)GlcNAc(b1-4)[Fuc(a1-6)]GlcNAc
Summary of the method: as §1

[20] = target: Gal(b1-4)GlcNAc(b1-2)Man(a1-3)[GlcNAc(b1-2)Man(a1-6)]Man(b1-4)GlcNAc(b1-4)GlcNAc
Summary of the method: as §1

[21] = target: Gal(b1-4)GlcNAc(b1-2)Man(a1-3)[GlcNAc(b1-4)][Gal(b1-4)GlcNAc(b1-2)Man(a1-6)]Man(b1-4)GlcNAc(b1-4)GlcNAc
Summary of the method: as §1

[22] = target: Gal(b1-4)GlcNAc(b1-2)Man(a1-3)[Man(a1-6)]Man(b1-4)GlcNAc(b1-4)GlcNAc
Summary of the method: as §1

[23] = target: Gal(b1-4)GlcNAc(b1-2)Man(a1-6)Man(b1-4)GlcNAc(b1-4)GlcNAc
Summary of the method: as §1

[24] = target: Gal(b1-4)GlcNAc(b1-2)Man(a1-6)[GlcNAc(b1-2)Man(a1-3)]Man(b1-4)GlcNAc(b1-4)GlcNAc
Summary of the method: as §1

[25] = target: Gal(b1-4)GlcNAc(b1-2)Man(a1-6)[Man(a1-3)]Man(b1-4)GlcNAc(b1-4)GlcNAc
Summary of the method: as §1

[26] = target: Gal(b1-4)GlcNAc(b1-2)[Gal(b1-4)GlcNAc(b1-4)]Man(a1-3)[Gal(b1-4)GlcNAc(b1-2)Man(a1-6)]Man(b1-4)GlcNAc(b1-4)GlcNAc
Summary of the method: as §1

[27] = target: Gal(b1-4)GlcNAc(b1-2)[Gal(b1-4)GlcNAc(b1-4)]Man(a1-3)[Gal(b1-4)GlcNAc(b1-2)[Gal(b1-4)GlcNAc(b1-6)]Man(a1-6)]Man(b1-4)GlcNAc(b1-4)GlcNAc
Summary of the method: as §1

[28] = target: Gal(b1-4)GlcNAc(b1-2)[Gal(b1-4)GlcNAc(b1-4)]Man(a1-3)[GlcNAc(b1-4)][Gal(b1-4)GlcNAc(b1-2)Man(a1-6)]Man(b1-4)GlcNAc(b1-4)GlcNAc
Summary of the method: as §1

[29] = target: Gal(b1-4)GlcNAc(b1-2)[Gal(b1-4)GlcNAc(b1-4)]Man(a1-3)[GlcNAc(b1-4)][Gal(b1-4)GlcNAc(b1-2)[Gal(b1-4)GlcNAc(b1-6)]Man(a1-6)]Man(b1-4)GlcNAc(b1-4)GlcNAc
Summary of the method: as §1

[30] = target: Gal(b1-4)GlcNAc(b1-2)[Gal(b1-4)GlcNAc(b1-6)]Man(a1-6)[Gal(b1-4)GlcNAc(b1-2)Man(a1-3)]Man(b1-4)GlcNAc(b1-4)GlcNAc
Summary of the method: as §1

[31] = target: Gal(b1-4)GlcNAc(b1-2)[Gal(b1-4)GlcNAc(b1-6)]Man(a1-6)[Gal(b1-4)GlcNAc(b1-2)Man(a1-3)]Man(b1-4)GlcNAc(b1-4)[Fuc(a1-6)]GlcNAc
Summary of the method: as §1

[32] = target: Gal(b1-4)GlcNAc(b1-2)[Gal(b1-4)GlcNAc(b1-6)]Man(a1-6)[GlcNAc(b1-4)][Gal(b1-4)GlcNAc(b1-2)Man(a1-3)]Man(b1-4)GlcNAc(b1-4)GlcNAc
Summary of the method: as §1

[33] = target: Gal(b1-4)GlcNAc(b1-2)[Gal(b1-4)GlcNAc(b1-6)]Man(a1-6)[GlcNAc(b1-4)][Gal(b1-4)GlcNAc(b1-2)[Gal(b1-4)GlcNAc(b1-4)]Man(a1-3)]Man(b1-4)GlcNAc(b1-4)[Fuc(a1-6)]GlcNAc
Summary of the method: as §1

[34] = target: Gal(b1-4)GlcNAc(b1-3)Gal(b1-3)GalNAc
Summary of the method: as §1

[35] = target: Gal(b1-4)GlcNAc(b1-3)Gal(b1-3)GlcNAc
Summary of the method: as §1

[36] = target: Gal(b1-4)GlcNAc(b1-3)Gal(b1-4)Glc
Summary of the method: as §1

[37] = target: Gal(b1-4)GlcNAc(b1-3)Gal(b1-4)GlcNAc
Summary of the method: as §1

[38] = target: Gal(b1-4)GlcNAc(b1-3)Gal(b1-4)GlcNAc(b1-2)Man(a1-3)[Gal(b1-4)GlcNAc(b1-3)Gal(b1-4)GlcNAc(b1-2)Man(a1-6)]Man(b1-4)GlcNAc(b1-4)GlcNAc
Summary of the method: as §1

[39] = target: Gal(b1-4)GlcNAc(b1-3)Gal(b1-4)GlcNAc(b1-2)Man(a1-3)[Gal(b1-4)GlcNAc(b1-3)Gal(b1-4)GlcNAc(b1-2)Man(a1-6)]Man(b1-4)GlcNAc(b1-4)[Fuc(a1-6)]GlcNAc
Summary of the method: as §1

B1: Epa3to2 (Candida glabrata) (protein)
chain: MGSSHHHHHHSSGLVPRGSHMKRELSSQNPFGYPIGCSPQDVAIIPGLTMELYSYPIVSGTPPNCYDASYVDPEYPRTGYLKRKMVGKSTGVTGNLNYKYSVEKACMVKYGNLPAGYNYNEPLTVSNFTMILYGYFKAQTTGLHTFFVNADDLLYINFGAGNAFDCCKREDSKTKLGEYVAYDIWHVDSSKNKVSLFLEKDLYYPIRMFFNNRDNNSSLDLSFSVNGATDQISDFSGYLYSVPDQPDTCPAHIGYDTTCR
In the case of B1, the “glycan array binding signal (z-score)” value [1] is reported as -0.743, the “glycan array binding signal (z-score)” value (Gal(b1-3)GlcNAc6S) is reported as 0.219 and the “glycan array binding signal (z-score)” value [2] is reported as -0.481. For the same binder, the “glycan array binding signal (z-score)” value [3] was 0.761, the “glycan array binding signal (z-score)” value [4] was -0.358 and the “glycan array binding signal (z-score)” value [5] was -1.46. The “glycan array binding signal (z-score)” value [6] was -1.49, the “glycan array binding signal (z-score)” value [7] was -0.758 and the “glycan array binding signal (z-score)” value [8] was 0.111. For the same binder, the “glycan array binding signal (z-score)” value [9] was 0.19, the “glycan array binding signal (z-score)” value [10] was 0.314 and the “glycan array binding signal (z-score)” value [11] was -1.28. The “glycan array binding signal (z-score)” value (Gal(b1-4)Gal) was -1.15, the “glycan array binding signal (z-score)” value [12] was -1.03 and the “glycan array binding signal (z-score)” value [13] was 0.334. For the same binder, the “glycan array binding signal (z-score)” value (Gal(b1-4)Glc) was -0.667, the “glycan array binding signal (z-score)” value (Gal(b1-4)Glc6S) was 0.174 and the “glycan array binding signal (z-score)” value (Gal(b1-4)GlcNAc) was 0.032. For the same binder, the “glycan array binding signal (z-score)” value [14] was 0.937, the “glycan array binding signal (z-score)” value (Gal(b1-4)GlcNAc(b1-2)Man) was -0.96 and the “glycan array binding signal (z-score)” value [15] was 0.12. The “glycan array binding signal (z-score)” value [16] was 1.39, the “glycan array binding signal (z-score)” value [17] was 1.25 and the “glycan array binding signal (z-score)” value [18] was -0.737. The “glycan array binding signal (z-score)” value [19] was -1.09, the “glycan array binding signal (z-score)” value [20] was -0.998 and the “glycan array binding signal (z-score)” value [21] was -0.609. The “glycan array binding signal (z-score)” value [22] was 0.07, the “glycan array binding signal (z-score)” value [23] was 0.844 and the “glycan array binding signal (z-score)” value [24] was 0.388. For the same binder, the “glycan array binding signal (z-score)” value [25] was 0.476, the “glycan array binding signal (z-score)” value [26] was -1.88 and the “glycan array binding signal (z-score)” value [27] was -0.305. For the same binder, the “glycan array binding signal (z-score)” value [28] was -1.1, the “glycan array binding signal (z-score)” value [29] was 0.856 and the “glycan array binding signal (z-score)” value [30] was -0.299. For the same binder, the “glycan array binding signal (z-score)” value [31] was 0.238, the “glycan array binding signal (z-score)” value [32] was -0.786 and the “glycan array binding signal (z-score)” value [33] was -0.091. For the same binder, the “glycan array binding signal (z-score)” value [34] was 0.841, the “glycan array binding signal (z-score)” value [35] was -0.865 and the “glycan array binding signal (z-score)” value [36] was 0.733. For the same binder, the “glycan array binding signal (z-score)” value [37] was -0.591, the “glycan array binding signal (z-score)” value [38] was 0.022 and the “glycan array binding signal (z-score)” value [39] was 0.303.
